# Measured values as given in article PMC12499412.
# By UniProt entry, the sequences of proteins in these tests, tags left out. Residues count along the entry.
# UniProt P02769, 25-607: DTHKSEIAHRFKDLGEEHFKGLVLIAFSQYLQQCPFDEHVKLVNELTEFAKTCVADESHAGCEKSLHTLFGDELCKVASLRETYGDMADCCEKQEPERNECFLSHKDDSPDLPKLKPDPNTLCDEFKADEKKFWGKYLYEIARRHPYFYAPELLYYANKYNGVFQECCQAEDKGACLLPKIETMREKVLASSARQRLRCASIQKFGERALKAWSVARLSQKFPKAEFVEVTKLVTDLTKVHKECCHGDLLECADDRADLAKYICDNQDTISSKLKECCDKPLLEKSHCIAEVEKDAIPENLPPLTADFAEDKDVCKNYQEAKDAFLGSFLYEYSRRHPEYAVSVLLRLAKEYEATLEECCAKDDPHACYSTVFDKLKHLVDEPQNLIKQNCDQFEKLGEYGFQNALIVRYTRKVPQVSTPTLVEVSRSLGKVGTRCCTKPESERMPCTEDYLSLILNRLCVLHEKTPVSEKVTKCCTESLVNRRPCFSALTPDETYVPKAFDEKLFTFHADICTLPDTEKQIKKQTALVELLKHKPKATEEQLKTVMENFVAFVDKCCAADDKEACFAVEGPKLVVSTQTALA
# UniProt P01137, 30-390: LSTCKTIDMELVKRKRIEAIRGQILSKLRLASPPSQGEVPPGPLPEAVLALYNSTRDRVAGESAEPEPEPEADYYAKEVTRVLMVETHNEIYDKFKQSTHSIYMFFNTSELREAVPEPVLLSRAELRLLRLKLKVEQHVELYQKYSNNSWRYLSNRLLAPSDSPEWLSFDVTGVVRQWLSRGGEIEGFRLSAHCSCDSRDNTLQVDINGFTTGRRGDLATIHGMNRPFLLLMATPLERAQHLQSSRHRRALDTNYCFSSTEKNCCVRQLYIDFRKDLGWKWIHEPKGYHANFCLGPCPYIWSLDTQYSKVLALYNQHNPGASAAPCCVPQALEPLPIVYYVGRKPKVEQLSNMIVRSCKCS
# For some assays here: A negative result means that nothing was seen under these conditions. For some assays here: Construct, isoform or probe ends are uncertain for at least one entry.
# Legend:
# [1] = target: BSA (UniProt P02769); test: MST; conditions: aptamer:protein 1:50; phosphorothioates at A and C bases (positions marked * in Table S3); MST: 30 nM Cy5-a'-Apt final with 45 pM (4.5 pM in Fig S3 legend) to 1.5 uM protein, 37 °C, 2 h; specificity MST 5 nM aptamer, 0.25 uM protein; commercial protein; label: 5'-Cy5; single-stranded DNA
# [2] = target: latent TGFβ1 (UniProt P01137); test: MST; conditions: 37 °C, 2 h, phosphorothioates at A and C bases (positions marked * in Table S3), MST: 30 nM Cy5-a'-Apt final with 45 pM (4.5 pM in Fig S3 legend) to 1.5 uM protein, specificity MST 5 nM aptamer, 0.25 uM protein, commercial protein, label: 5'-Cy5, single-stranded DNA
sequence,measurement,setting,value
TCGCTCGGCTTCACGAGATTCGTGTCGTTGTGTCCTGTACCCGCCTTGACCAGTCACTCTAGAGCATCCGGACTGTAGATGGAGTGTGGTGTGAAG [Cy5-a'-Apt],binding result,[1],no binding
same,Kd,[2],0.152 µM
